± gives the standard deviation of the averaged measurements. The reference is the same well before dosing, and untreated signal decays as well.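 Fibroblast labels name human fibroblasts: mostly primary ones from tissues such as uterus (C12385, HUF), lung (H6013), bone (Hs27A), adrenal (HADF) and skin (WS1), plus mammary HMF and breast cancer-associated Hs343T. The cancer cells are basal-like or mesenchymal-like triple-negative breast cancer lines. The paper calls a changed response a hit when it shifts by more than 3x the replicate standard deviation. The tissue of the other fibroblasts is not given here.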
Test system: Hs578T
Assay: relative JC-1 red fluorescence (viability) vs pre-drug, coculture with fibroblast (fraction); higher = more viable cancer cells
Description: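 JC-1 labelled TNBC cells cocultured 1:1 (1,500 cells each) with CellTrace Violet stained primary or stromal fibroblasts in 384-well plates in FluoroBrite medium, treated with one of 42 anticancer drugs at 0.1, 1, 10 or 100 uM. JC-1 red fluorescence (mitochondrial integrity in cancer cells only) was read by plate reader every 8 h for 72 h. Values are normalised to each well's pre-drug value. The stock of one drug was tenfold lower, so its dose labels may be too high.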

O=NN(CCCl)C(=O)NC1CCCCC1 [Lomustine]
relative JC-1 red fluorescence
Settings	8 h	16 h	24 h	32 h	40 h	48 h	56 h	64 h	72 h
10 µM	0.883 ± 0.021	0.803 ± 0.014	0.756 ± 0.012	0.715 ± 0.023	0.663 ± 0.036	0.623 ± 0.042	0.6 ± 0.062	0.557 ± 0.07	0.554 ± 0.082
100 µM	0.805 ± 0.0088	0.709 ± 0.01	0.671 ± 0.022	0.642 ± 0.01	0.5988 ± 0.0044	0.5643 ± 0.0039	0.5612 ± 0.0055	0.531 ± 0.014	0.526 ± 0.018

relative JC-1 red fluorescence
Settings	8 h	16 h	24 h	32 h	40 h	48 h	56 h	64 h	72 h
10 µM, coculture fibroblast: C12385	0.798 ± 0.022	0.7404 ± 0.0059	0.725 ± 0.019	0.633 ± 0.015	0.583 ± 0.0091	0.553 ± 0.012	0.519 ± 0.027	0.51 ± 0.03	0.507 ± 0.035
10 µM, coculture fibroblast: H6013	0.831 ± 0.044	0.787 ± 0.049	0.756 ± 0.068	0.744 ± 0.063	0.735 ± 0.056	0.732 ± 0.057	0.727 ± 0.063	0.729 ± 0.062	0.71 ± 0.055
10 µM, coculture fibroblast: H6019	0.7934 ± 0.006	0.711 ± 0.016	0.691 ± 0.022	0.602 ± 0.02	0.57 ± 0.023	0.545 ± 0.036	0.526 ± 0.039	0.513 ± 0.033	0.491 ± 0.036
10 µM, coculture fibroblast: H6076	0.874 ± 0.011	0.783 ± 0.023	0.749 ± 0.019	0.7309 ± 0.0072	0.699 ± 0.02	0.7035 ± 0.0069	0.696 ± 0.014	0.7 ± 0.019	0.705 ± 0.021
10 µM, coculture fibroblast: H6231	0.903 ± 0.042	0.832 ± 0.063	0.765 ± 0.03	0.7259 ± 0.0018	0.652 ± 0.019	0.627 ± 0.032	0.575 ± 0.038	0.557 ± 0.042	0.544 ± 0.051
10 µM, coculture fibroblast: HADF	0.8375 ± 0.0012	0.79 ± 0.012	0.739 ± 0.02	0.701 ± 0.013	0.679 ± 0.022	0.657 ± 0.013	0.631 ± 0.0081	0.618 ± 0.0084	0.591 ± 0.0058
10 µM, coculture fibroblast: HCFa	0.805 ± 0.037	0.709 ± 0.05	0.656 ± 0.067	0.601 ± 0.09	0.557 ± 0.1	0.547 ± 0.11	0.526 ± 0.12	0.524 ± 0.13	0.512 ± 0.13
10 µM, coculture fibroblast: HCPF	0.899 ± 0.066	0.834 ± 0.073	0.808 ± 0.055	0.788 ± 0.035	0.736 ± 0.026	0.7229 ± 0.0049	0.703 ± 0.011	0.668 ± 0.017	0.639 ± 0.029
10 µM, coculture fibroblast: HHSteC	0.823 ± 0.022	0.752 ± 0.039	0.708 ± 0.06	0.657 ± 0.082	0.625 ± 0.1	0.602 ± 0.11	0.588 ± 0.12	0.572 ± 0.14	0.554 ± 0.14
10 µM, coculture fibroblast: HMF	0.884 ± 0.018	0.812 ± 0.013	0.7626 ± 0.00096	0.72 ± 0.0087	0.663 ± 0.017	0.631 ± 0.024	0.598 ± 0.036	0.577 ± 0.05	0.559 ± 0.049
10 µM, coculture fibroblast: HPFa	0.8829 ± 0.0048	0.813 ± 0.018	0.777 ± 0.028	0.727 ± 0.032	0.708 ± 0.046	0.683 ± 0.054	0.656 ± 0.063	0.636 ± 0.069	0.6 ± 0.071
10 µM, coculture fibroblast: HUF	0.817 ± 0.031	0.72 ± 0.026	0.716 ± 0.022	0.627 ± 0.019	0.572 ± 0.017	0.545 ± 0.016	0.523 ± 0.02	0.527 ± 0.022	0.524 ± 0.031
10 µM, coculture fibroblast: Hs27A	0.877 ± 0.022	0.797 ± 0.038	0.757 ± 0.038	0.716 ± 0.06	0.668 ± 0.074	0.665 ± 0.081	0.637 ± 0.09	0.627 ± 0.093	0.578 ± 0.094
10 µM, coculture fibroblast: Hs343T	0.9248 ± 0.0046	0.837 ± 0.024	0.783 ± 0.035	0.757 ± 0.071	0.683 ± 0.083	0.664 ± 0.09	0.627 ± 0.1	0.599 ± 0.11	0.59 ± 0.11
10 µM, coculture fibroblast: WS1	0.8016 ± 0.0044	0.693 ± 0.016	0.656 ± 0.05	0.552 ± 0.052	0.497 ± 0.063	0.479 ± 0.071	0.444 ± 0.074	0.437 ± 0.079	0.424 ± 0.09
100 µM, coculture fibroblast: C12385	0.727 ± 0.01	0.641 ± 0.015	0.578 ± 0.036	0.491 ± 0.025	0.436 ± 0.034	0.403 ± 0.038	0.38 ± 0.038	0.364 ± 0.04	0.357 ± 0.045
100 µM, coculture fibroblast: H6013	0.7394 ± 0.005	0.678 ± 0.031	0.653 ± 0.032	0.634 ± 0.017	0.625 ± 0.015	0.618 ± 0.019	0.607 ± 0.012	0.617 ± 0.014	0.6 ± 0.016
100 µM, coculture fibroblast: H6019	0.702 ± 0.022	0.612 ± 0.012	0.601 ± 0.013	0.507 ± 0.013	0.479 ± 0.029	0.471 ± 0.036	0.46 ± 0.038	0.455 ± 0.048	0.443 ± 0.051
100 µM, coculture fibroblast: H6076	0.745 ± 0.015	0.666 ± 0.011	0.67979 ± 0.00046	0.678 ± 0.01	0.676 ± 0.01	0.701 ± 0.011	0.71 ± 0.027	0.72 ± 0.025	0.738 ± 0.024
100 µM, coculture fibroblast: H6231	0.828 ± 0.014	0.745 ± 0.019	0.699 ± 0.041	0.663 ± 0.039	0.614 ± 0.039	0.593 ± 0.043	0.555 ± 0.042	0.534 ± 0.051	0.531 ± 0.047
100 µM, coculture fibroblast: HADF	0.734 ± 0.032	0.681 ± 0.069	0.675 ± 0.09	0.648 ± 0.1	0.639 ± 0.12	0.626 ± 0.12	0.607 ± 0.12	0.607 ± 0.12	0.582 ± 0.12
100 µM, coculture fibroblast: HCFa	0.757 ± 0.019	0.72 ± 0.014	0.6948 ± 0.0065	0.6607 ± 0.001	0.62 ± 0.0076	0.608 ± 0.017	0.589 ± 0.015	0.589 ± 0.017	0.569 ± 0.032
100 µM, coculture fibroblast: HCPF	0.805 ± 0.035	0.726 ± 0.033	0.6884 ± 0.0045	0.6611 ± 0.0066	0.615 ± 0.016	0.596 ± 0.016	0.593 ± 0.034	0.549 ± 0.053	0.534 ± 0.059
100 µM, coculture fibroblast: HHSteC	0.7824 ± 0.0034	0.738 ± 0.0085	0.709 ± 0.027	0.682 ± 0.043	0.658 ± 0.07	0.635 ± 0.077	0.622 ± 0.098	0.611 ± 0.11	0.594 ± 0.12
100 µM, coculture fibroblast: HMF	0.734 ± 0.033	0.644 ± 0.032	0.636 ± 0.021	0.636 ± 0.025	0.611 ± 0.054	0.601 ± 0.059	0.595 ± 0.065	0.583 ± 0.068	0.573 ± 0.075
100 µM, coculture fibroblast: HPFa	0.78158 ± 0.00077	0.703 ± 0.028	0.657 ± 0.041	0.606 ± 0.044	0.571 ± 0.059	0.548 ± 0.059	0.515 ± 0.051	0.499 ± 0.053	0.469 ± 0.053
100 µM, coculture fibroblast: HUF	0.752 ± 0.029	0.649 ± 0.0078	0.646 ± 0.042	0.562 ± 0.04	0.513 ± 0.039	0.489 ± 0.045	0.464 ± 0.051	0.459 ± 0.052	0.458 ± 0.058
100 µM, coculture fibroblast: Hs27A	0.8515 ± 0.0025	0.774 ± 0.023	0.739 ± 0.02	0.705 ± 0.024	0.656 ± 0.025	0.642 ± 0.019	0.601 ± 0.0072	0.597 ± 0.011	0.546 ± 0.0097
100 µM, coculture fibroblast: Hs343T	0.739 ± 0.027	0.613 ± 0.088	0.616 ± 0.07	0.615 ± 0.06	0.571 ± 0.056	0.566 ± 0.037	0.555 ± 0.031	0.541 ± 0.018	0.54192 ± 0.0001
100 µM, coculture fibroblast: WS1	0.723 ± 0.015	0.675 ± 0.065	0.69 ± 0.086	0.599 ± 0.087	0.542 ± 0.084	0.535 ± 0.078	0.506 ± 0.067	0.501 ± 0.073	0.492 ± 0.068

From the supplement of paper PMC6078165
